Earlier results as cited in patent US20260158008A1, “POLYMORPHS OF THE MESYLATE SALT OF LINAPRAZAN GLURATE” (Cinclus Pharma Holding AB (Publ), priority 2021, published 2026).
At least one compound was matched to its structure with a doubt left.

Settings: cited from earlier work

For `Cc1cccc(C)c1CNc1cc(C(=O)NCCOC(=O)CCCC(=O)O)cn2c(C)c(C)nc12` [Form A (free base)], which hygroscopicity is on record?
Its hygroscopicity is “very low hygroscopicity”.
